Test results as given in paper PMC12670160, “A drug-repurposing screen of FDA- and EMA-approved drugs identifies two NF-κB inhibitors active against eumycetoma” (Journal of Antimicrobial Chemotherapy, 2025).
Counter-ions that a name gives are not always drawn. The campaign covered roughly 5,300 compounds. About 130 (2.5%) showed an effect of 50% or more. Some of the results follow.

test system: M. mycetomatis strain mm55; conditions: primary screen, metabolic activity vs growth control; 96 h, 2 µM; inhibitor

Row | Compound | % viability [%]
1 | C=CCOC(Cn1ccnc1)c1ccc(Cl)cc1Cl (stereo not shown) [ONC0005416, enilconazole sulfate] | 2.508
2 | CC1(C)[C@@H](OC(=O)CCC(=O)O)CC[C@]2(C)[C@H]3C(=O)C=C4[C@@H]5C[C@@](C)(C(=O)O)CC[C@]5(C)CC[C@@]4(C)[C@]3(C)CC[C@@H]12 [ONC0000604, carbenoxolone sodium] | 49.18
3 | O=C(O[C@H]1CN2CCC1CC2)N(Cc1cc(F)c(F)c(F)c1)c1cccc(F)c1 [ONC0001087, tarafenacin dtartrate] | 72.82
4 | O=C(/C=C/c1ccccc1)NCCO [ONC0003639, n2hydroxyethyl3phenylacrylamide] | 106
5 | N#C/C(=C\c1ccc(O)c(O)c1)C(=O)NCc1ccccc1 [ONC0001637, ag490] | 81.36
6 | C#C[C@]1(O)CC[C@H]2[C@@H]3CCC4=CC(=O)CC[C@@H]4[C@H]3CC[C@@]21CC [ONC0004187, levonorgestrel] | 62.14
7 | Cc1cc(SCc2sc(-c3ccc(C(F)(F)F)cc3)nc2C)ccc1OCC(=O)O [ONC0001821, gw 501516] | 81.58
8 | Cc1cc(C(=O)Nc2cccc(C(=O)Nc3cccc(C(F)(F)F)c3)c2)on1 [ONC0003093, t5601640] | 84.6
9 | COc1cc2c(cc1F)C(c1ccccc1Cl)=Nc1c(n[nH]c1C)N2 [ONC0000932, r1530] | 66.47
10 | CC(=O)OCC(=O)[C@H]1CC[C@H]2[C@@H]3CCC4=CC(=O)CC[C@]4(C)[C@H]3CC[C@]12C [ONC0003291, desoxycorticosterone acetate] | 95.35
11 | Cn1cc(-c2ccc3c(c2)CCN3C(=O)Cc2cccc(C(F)(F)F)c2)c2c(N)ncnc21 [ONC0001550, gsk2606414] | 70.45
12 | Oc1cccc(-c2nc(N3CCOCC3)c3oc4ncccc4c3n2)c1 [ONC0001440, pi103] | 59.86
13 | O=c1[nH]c2ccccc2n1C1CCN(CCCC(c2ccc(F)cc2)c2ccc(F)cc2)CC1 [ONC0000675, pimozide] | 106.9
14 | Fc1ccc(-c2c3cccc(C(F)(F)F)c3nn2Cc2ccc(F)cc2Cl)cc1 [ONC0001311, lxr623] | 57.61
15 | COC(=O)Nc1ccc2[nH]cc(CCNC(C)=O)c2c1 [ONC0000091, gr135531] | 120.1
16 | CC(C)(C)[C@H]1CC[C@H](CC2=C(O)C(=O)c3ccccc3C2=O)CC1 [ONC0001005, buparvaquone] | 96.95
